The chains behind the UniProt entries cited, without tags or fusion partners.
UniProt O60260: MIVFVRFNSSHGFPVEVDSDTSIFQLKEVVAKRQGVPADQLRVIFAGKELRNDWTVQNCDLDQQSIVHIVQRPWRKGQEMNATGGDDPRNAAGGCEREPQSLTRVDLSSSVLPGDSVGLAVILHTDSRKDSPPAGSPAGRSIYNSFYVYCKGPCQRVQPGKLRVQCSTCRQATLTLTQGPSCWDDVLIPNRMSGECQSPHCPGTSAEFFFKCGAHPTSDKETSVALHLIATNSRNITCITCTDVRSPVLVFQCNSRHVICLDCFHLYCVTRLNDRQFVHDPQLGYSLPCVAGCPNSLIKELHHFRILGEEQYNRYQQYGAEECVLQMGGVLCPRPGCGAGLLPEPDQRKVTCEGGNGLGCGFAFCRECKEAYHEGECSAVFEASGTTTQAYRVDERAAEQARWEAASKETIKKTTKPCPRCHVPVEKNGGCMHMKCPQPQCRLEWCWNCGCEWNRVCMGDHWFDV

In PMC3823883:

The binders below were run against TAP-tagged Parkin (human) (UniProt O60260) (assay: affinity purification with mass spectrometry; tandem affinity purification (streptavidin resin, then calmodulin resin) of TAP-tagged Parkin from whole cell lysates of HEK293T and from mitochondrial and cytosolic fractions of HEK293T and SH-SY5Y cells, not treated or treated with valinomycin (1 uM) or CCCP (10 uM); 4°C; eluate identified by MS, two or more peptide matches).

| Binder | binding |
| --- | --- |
| INA (protein, UniProt Q16352 1-499) MSFGSEHYLCSSSSYRKVFGDGSRLSARLSGAGGAGGFRSQSLSRSNVASSAACSSASSLGLGLAYRRPPASDGLDLSQAAARTNEYKIIRTNEKEQLQGLNDRFAVFIEKVHQLETQNRALEAELAALRQRHAEPSRVGELFQRELRDLRAQLEEASSARSQALLERDGLAEEVQRLRARCEEESRGREGAERALKAQQRDVDGATLARLDLEKKVESLLDELAFVRQVHDEEVAELLATLQASSQAAAEVDVTVAKPDLTSALREIRAQYESLAAKNLQSAEEWYKSKFANLNEQAARSTEAIRASREEIHEYRRQLQARTIEIEGLRGANESLERQILELEERHSAEVAGYQDSIGQLENDLRNTKSEMARHLREYQDLLNVKMALDIEIAAYRKLLEGEETRFSTSGLSISGLNPLPNPSYLLPPRILSATTSKVSSTGLSLKKEEEEEEASKVASKKTSQIGESFEEILEETVISTKKTEKSNIEETTISSQKI | binds |
| ATP5J2 (protein, UniProt P56134 1-94) MASVGECPAPVPVKDKKLLEVKLGELPSWILMRDFSPSGIFGAFQRGYYRYYNKYINVKKGSISGITMVLACYVLFSYSFSYKHLKHERLRKYH | binds |
| MYL12A (protein, UniProt P19105 1-171) MSSKRTKTKTKKRPQRATSNVFAMFDQSQIQEFKEAFNMIDQNRDGFIDKEDLHDMLASLGKNPTDEYLDAMMNEAPGPINFTMFLTMFGEKLNGTDPEDVIRNAFACFDEEATGTIQEDYLRELLTTMGDRFTDEEVDELYREAPIDKKGNFNYIEFTRILKHGAKDKDD | binds |
| CIRBP (protein, UniProt Q14011 1-172) MASDEGKLFVGGLSFDTNEQSLEQVFSKYGQISEVVVVKDRETQRSRGFGFVTFENIDDAKDAMMAMNGKSVDGRQIRVDQAGKSSDNRSRGYRGGSAGGRGFFRGGRGRGRGFSRGGGDRGYGGNRFESRSGGYGGSRDYYSSRSQSGGYSDRSSGGSYRDSYDSYATHNE | binds |

Further lines, results first:

| binding | Binder |
| --- | --- |
| binds | SART1 (protein, UniProt O43290 1-800) MGSSKKHRGEKEAAGTTAAAGTGGATEQPPRHREHKKHKHRSGGSGGSGGERRKRSRERGGERGSGRRGAEAEARSSTHGRERSQAEPSERRVKREKRDDGYEAAASSKTSSGDASSLSIEETNKLRAKLGLKPLEVNAIKKEAGTKEEPVTADVINPMALRQREELREKLAAAKEKRLLNQKLGKIKTLGEDDPWLDDTAAWIERSRQLQKEKDLAEKRAKLLEEMDQEFGVSTLVEEEFGQRRQDLYSARDLQGLTVEHAIDSFREGETMILTLKDKGVLQEEEDVLVNVNLVDKERAEKNVELRKKKPDYLPYAEDESVDDLAQQKPRSILSKYDEELEGERPHSFRLEQGGTADGLRERELEEIRAKLRLQAQSLSTVGPRLASEYLTPEEMVTFKKTKRRVKKIRKKEKEVVVRADDLLPLGDQTQDGDFGSRLRGRGRRRVSEVEEEKEPVPQPLPSDDTRVENMDISDEEEGGAPPPGSPQVLEEDEAELELQKQLEKGRRLRQLQQLQQLRDSGEKVVEIVKKLESRQRGWEEDEDPERKGAIVFNATSEFCRTLGEIPTYGLAGNREEQEELMDFERDEERSANGGSESDGEENIGWSTVNLDEEKQQQDFSASSTTILDEEPIVNRGLAAALLLCQNKGLLETTVQKVARVKAPNKSLPSAVYCIEDKMAIDDKYSRREEYRGFTQDFKEKDGYKPDVKIEYVDETGRKLTPKEAFRQLSHRFHGKGSGKMKTERRMKKLDEEALLKKMSSSDTPLGTVALLQEKQKAQKTPYIVLSGSGKSMNANTITK |
| binds | SSBP1 (protein, UniProt Q04837 17-148) ESETTTSLVLERSLNRVHLLGRVGQDPVLRQVEGKNPVTIFSLATNEMWRSGDSEVYQLGDVSQKTTWHRISVFRPGLRDVAYQYVKKGSRIYLEGKIDYGEYMDKNNVRRQATTIIADNIIFLSDQTKEKE |
| binds | VGF (protein, UniProt O15240 23-615) APPGRPEAQPPPLSSEHKEPVAGDAVPGPKDGSAPEVRGARNSEPQDEGELFQGVDPRALAAVLLQALDRPASPPAPSGSQQGPEEEAAEALLTETVRSQTHSLPAPESPEPAAPPRPQTPENGPEASDPSEELEALASLLQELRDFSPSSAKRQQETAAAETETRTHTLTRVNLESPGPERVWRASWGEFQARVPERAPLPPPAPSQFQARMPDSGPLPETHKFGEGVSSPKTHLGEALAPLSKAYQGVAAPFPKARRPESALLGGSEAGERLLQQGLAQVEAGRRQAEATRQAAAQEERLADLASDLLLQYLLQGGARQRGLGGRGLQEAAEERESAREEEEAEQERRGGEERVGEEDEEAAEAEAEAEEAERARQNALLFAEEEDGEAGAEDKRSQEETPGHRRKEAEGTEEGGEEEDDEEMDPQTIDSLIELSTKLHLPADDVVSIIEEVEEKRKRKKNAPPEPVPPPRAAPAPTHVRSPQPPPPAPAPARDELPDWNEVLPPWDREEDEVYPPGPYHPFPNYIRPRTLQPPSALRRRHYHHALPPSRHYPGREAQARRAQEEAEAEERRLQEQEELENYIEHVLLRRP |

These are yes or no findings as the source states them, for the method shown. Binding seen in cells or lysates may run through a third protein. Here binding means that the protein was enriched with, or labelled near, the bait; the list need not be complete.
